Data set [1] concerns complex of peptide and protein in blood. Nature of the data set: Recovery of peptides of various isoelectric points from diluted whole blood with glycine, fluorescence spectrum. The note with it: 160° C.; for recovered amount of peptide (recovery rate×purification degree) relative to the amount when not adding amino acids: glycine 1500 mM; for Purification degree: glycine added, 1500 mM, not added = 1.

The subject of data set [2] is mixture of serum and peptide. Nature of the data set: Peptide recovery from diluted human serum with added amino acids. The note with it: TMR-ACTH partial peptide, 160° C., without additives = 1.
Data set [3] deals with complex of peptide and protein in blood. Nature of the data set: Peptide recovery from diluted whole blood with added amino acids, hydrothermal treatment, SDS-PAGE (fluorescence imaging, silver staining). The note with it: for Purification degree: TMR-ACTH partial peptide, 160° C., without additives = 1; for numerical value of the recovery rate×the purification degree compared to the case of not adding any of the amino acids: concentrations of Table 1, 160° C.

Data set [4] can be described thus: Hydrothermal reaction of lysozyme with glycine, SDS-PAGE band intensity. The note with it: lysozyme 10 mg/mL, glycine 1 M, hydrothermal reaction as Example 1.
Another data set deals with protein in blood. Nature of the data set: Comparative Example 1: peptide recovery from serum with basic amino acids. The note with it: 5 mM, 2 mM or 0.5 mM; human serum, as Example 4.
Data set [5] concerns complex of peptide and protein in blood. The note with it: for Purification degree: whole blood, ACTH partial peptide, 160° C., without additives = 1.
The test system of data set [6] is mixture of serum and peptide. As to the kind of experiment: Peptide recovery from diluted human serum with asparagine at various heating temperatures. The note with it: Asn 150 mM, without amino acid at 160° C. = 1.

Like-named read-outs stand apart in the source and are kept apart here.

Turning to “BNP: BNP (brain natriuretic peptide) labeled with TMR”, in data set [1], the “recovered amount of peptide (recovery rate×purification degree) relative to the amount when not adding amino acids” value is recorded as 11.0 times and the Purification degree is 3.09.
Take `N[C@@H](CS)C(=O)O` [Cysteine, cysteine]: the Purification degree in data set [2] (20 mM) came to 1.59; in data set [2] (50 mM), 1.67; in data set [2] (100 mM), 1.24; in data set [2] (500 mM), 0.90.
In turn, `N[C@@H](Cc1c[nH]c2ccccc12)C(=O)O` [Trp, L-tryptophan] came in with a Purification degree in data set [3] (50 mM) of 1.2. Further, the “numerical value of the recovery rate×the purification degree compared to the case of not adding any of the amino acids” value in data set [3] is “increased”.
Regarding “lysozyme: hen egg-white lysozyme hydrochloride having 129 residues, about 15 kDa”, in data set [4], the “SDS-PAGE peak at a position of 15 kDa after hydrothermal reaction compared to without hydrothermal treatment” value is on record as “decreased greatly”; the “state of lysozyme after hydrothermal reaction (peaks at 3.5 to 10 kDa and less than 3.5 kDa)” value was “fragmented”.
For the molecule C-peptide, in data set [1], the “recovered amount of peptide (recovery rate×purification degree) relative to the amount when not adding amino acids” value worked out at 3.95 times and the Purification degree is reported as 2.23.
Regarding `N=C(N)NCCC[C@H](N)C(=O)O` [Arg, L-arginine], in data set [3] (500 mM), the Purification degree stood at 0.86. In data set [3], the “numerical value of the recovery rate×the purification degree compared to the case of not adding any of the amino acids” value is reported as “not observed”. In the data set on protein in blood, the “aggregation of the protein in blood” value is given as “did not aggregate” and the recovery of peptides result was “could not be recovered”.
Regarding `CC(C)C[C@H](N)C(=O)O` [Leucine, leucine], the Purification degree in data set [2] (100 mM) was 1.27; in data set [2] (150 mM), 1.33.
In the case of `CSCCC(N)C(=O)O` (racemic) [Met, DL-methionine], the Purification degree in data set [3] (255 mM) is recorded as 2.11. Further, in data set [3], the “numerical value of the recovery rate×the purification degree compared to the case of not adding any of the amino acids” value is “increased”.
As for `CC(C)[C@H](N)C(=O)O` [Val, L-valine], the Purification degree in data set [3] (500 mM) came out at 2.05. Moreover, the “numerical value of the recovery rate×the purification degree compared to the case of not adding any of the amino acids” value in data set [3] is “increased”.
The molecule `O=C(O)[C@@H]1CCCN1` [Pro, L(−)-proline] returned a Purification degree in data set [3] (500 mM) of 1.3. Further, in data set [3], the “numerical value of the recovery rate×the purification degree compared to the case of not adding any of the amino acids” value is “increased”.
In data set [3] (150 mM), `CC[C@H](C)[C@H](N)C(=O)O` [Ile, L-isoleucine] had a Purification degree of 1.36. For the same molecule, the “numerical value of the recovery rate×the purification degree compared to the case of not adding any of the amino acids” value in data set [3] is “increased”.
For the molecule `N[C@@H](CC(=O)O)C(=O)O` [Aspartic acid, aspartic acid], the Purification degree in data set [2] (5 mM) worked out at 1.98; in data set [2] (7 mM), 2.47; in data set [2] (8 mM), 2.27; in data set [2] (10 mM) it was 0.73.
Molecule `C[N+](C)(C)CC(=O)[O-]` [TMG, trimethylglycine] registered a Purification degree in data set [3] (500 mM) of 0.94. The “numerical value of the recovery rate×the purification degree compared to the case of not adding any of the amino acids” value in data set [3] was “not observed”.
On to `NCC(=O)O` [Gly, glycine], for which the “recovered amount of peptide (recovery rate×purification degree) relative to the amount when not adding amino acids” value in data set [5] (final concentration of 10 mM) stood at 1.43 times; in data set [5] (final concentration of 100 mM) it was 5.45 times; in data set [5] (final concentration of 500 mM), 9.12 times; in data set [5] (final concentration of 1500 mM) it was 24.6 times. The Purification degree in data set [5] (glycine 10 mM) was 0.92; in data set [5] (glycine 100 mM), 1.44; in data set [5] (glycine 500 mM), 2.20; in data set [5] (glycine 1500 mM), 5.05; in data set [3] (500 mM) it was 4.72; in data set [3] (2000 mM), 8.12. The Purification degree in data set [2] (500 mM) is given as 2.27. The “numerical value of the recovery rate×the purification degree compared to the case of not adding any of the amino acids” value in data set [3] is recorded as “increased”.
Take `NC(=O)CC[C@H](N)C(=O)O` [Gln, L-glutamine]: the Purification degree in data set [3] (128 mM) is 1.28. Besides, the “numerical value of the recovery rate×the purification degree compared to the case of not adding any of the amino acids” value in data set [3] is reported as “increased”.
Regarding `N[C@@H](CO)C(=O)O` [Ser, L-serine], the Purification degree in data set [3] (500 mM) is recorded as 1.61. Further, the “numerical value of the recovery rate×the purification degree compared to the case of not adding any of the amino acids” value in data set [3] is recorded as “increased”.
Take `NCCCC[C@H](N)C(=O)O` [Lys, L-lysine]: in data set [3] (500 mM), the Purification degree was 0.68. In addition, in data set [3], the “numerical value of the recovery rate×the purification degree compared to the case of not adding any of the amino acids” value is recorded as “not observed”. Besides, in the data set on protein in blood, the “aggregation of the protein in blood” value is reported as “did not aggregate” and the recovery of peptides entry is listed as “could not be recovered”.
In turn, `C[C@H](N)C(=O)O` [Ala, L-alanine] returned a Purification degree in data set [3] (500 mM) of 2.04. Besides, the “numerical value of the recovery rate×the purification degree compared to the case of not adding any of the amino acids” value in data set [3] was “increased”.
Molecule `NCC(=O)NCC(=O)O` [(Gly)2, glycylglycine] came in with a Purification degree in data set [3] (500 mM) of 1.03. The “numerical value of the recovery rate×the purification degree compared to the case of not adding any of the amino acids” value in data set [3] was “not observed”.
In the case of `N[C@@H](CCC(=O)O)C(=O)O` [Glutamic acid, glutamic acid], the Purification degree was determined as 2.16 in data set [2] (5 mM), 2.77 in data set [2] (7 mM), 2.34 in data set [2] (8 mM) and 0.83 in data set [2] (10 mM).
For `C[C@@H](O)[C@H](N)C(=O)O` [Thr, L-threonine], the Purification degree in data set [3] (500 mM) is reported as 2.46. Further, the “numerical value of the recovery rate×the purification degree compared to the case of not adding any of the amino acids” value in data set [3] was “increased”.
Take `N[C@@H](Cc1ccccc1)C(=O)O` [Phe, L-phenylalanine]: in data set [3] (160 mM), the Purification degree is 1.41. Moreover, the “numerical value of the recovery rate×the purification degree compared to the case of not adding any of the amino acids” value in data set [3] is “increased”.
On to “ACTH partial peptide: partial peptide consisting of 1st to 24th amino acids of ACTH; used labeled with tetramethyl rhodamine (TMR)”, for which, in data set [1], the “recovered amount of peptide (recovery rate×purification degree) relative to the amount when not adding amino acids” value is 12.2 times and the Purification degree is recorded as 3.38.
In turn, polyglycine [(Gly)n] gave a Purification degree in data set [3] (0.05% (w/v)) of 0.98. Also, the “numerical value of the recovery rate×the purification degree compared to the case of not adding any of the amino acids” value in data set [3] is “not observed”.
In the case of `NC(=O)C[C@H](N)C(=O)O` [Asn, L-asparagine], the Purification degree in data set [3] (150 mM) was 1.75; in data set [2] (150 mM) it was 2.12; in data set [6] (heating temperature: 130° C.) it was 2.13; in data set [6] (heating temperature: 140° C.), 2.12; in data set [6] (heating temperature: 150° C.) it was 2.01; in data set [6] (heating temperature: 160° C.), 2.46. Further, the “numerical value of the recovery rate×the purification degree compared to the case of not adding any of the amino acids” value in data set [3] was “increased”.

The values above are taken from patent publication US9840535B2, “Method of recovering peptide and method of detecting peptide” (SYSMEX CORPORATION, priority 2014, dated 2017).
